Among the data in publication PMC11250566 are binding values, retold here.

By UniProt entry, the sequences of proteins in these tests, tags left out.
UniProt Q00839: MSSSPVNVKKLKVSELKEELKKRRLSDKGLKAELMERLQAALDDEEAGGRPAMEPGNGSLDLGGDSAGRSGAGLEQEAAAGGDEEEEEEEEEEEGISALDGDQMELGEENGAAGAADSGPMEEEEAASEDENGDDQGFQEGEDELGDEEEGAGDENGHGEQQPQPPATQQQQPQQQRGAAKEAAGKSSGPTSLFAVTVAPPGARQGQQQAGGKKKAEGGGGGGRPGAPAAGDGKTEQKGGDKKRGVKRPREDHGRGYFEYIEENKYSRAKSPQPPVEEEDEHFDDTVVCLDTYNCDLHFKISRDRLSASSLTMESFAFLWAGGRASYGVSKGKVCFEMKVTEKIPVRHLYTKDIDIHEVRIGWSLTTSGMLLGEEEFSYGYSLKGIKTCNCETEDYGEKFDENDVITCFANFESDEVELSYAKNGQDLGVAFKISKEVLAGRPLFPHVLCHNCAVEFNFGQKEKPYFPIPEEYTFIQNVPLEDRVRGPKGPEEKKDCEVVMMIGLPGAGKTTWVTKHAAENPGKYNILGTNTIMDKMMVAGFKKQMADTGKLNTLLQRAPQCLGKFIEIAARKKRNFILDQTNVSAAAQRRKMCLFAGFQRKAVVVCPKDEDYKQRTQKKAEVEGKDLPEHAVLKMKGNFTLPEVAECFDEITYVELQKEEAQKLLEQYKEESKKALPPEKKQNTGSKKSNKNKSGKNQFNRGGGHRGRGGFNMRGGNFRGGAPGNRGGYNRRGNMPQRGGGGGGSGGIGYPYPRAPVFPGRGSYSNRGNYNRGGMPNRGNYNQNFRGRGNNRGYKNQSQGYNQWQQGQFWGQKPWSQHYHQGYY

For this test, the target named is hnRNP U in 293 cells (UniProt Q00839). Briefly: co-IP; reciprocal immunoprecipitation in 293 cells, with or without RNase A; immunoblot.

Results are given in words; binding and its absence hold for the method and conditions named. In cells and extracts the contact can be indirect. Some results given as binding are weak or reduced against the parent protein; the word gives no strength.

B1: DGCR8 in 293 cells (protein, UniProt Q8WYQ5 1-773)
chain: METDESPSPLPCGPAGEAVMESRARPFQALPREQSPPPPLQTSSGAEVMDVGSGGDGQSELPAEDPFNFYGASLLSKGSFSKGRLLIDPNCSGHSPRTARHAPAVRKFSPDLKLLKDVKISVSFTESCRSKDRKVLYTGAERDVRAECGLLLSPVSGDVHACPFGGSVGDGVGIGGESADKKDEENELDQEKRVEYAVLDELEDFTDNLELDEEGAGGFTAKAIVQRDRVDEEALNFPYEDDFDNDVDALLEEGLCAPKKRRTEEKYGGDSDHPSDGETSVQPMMTKIKTVLKSRGRPPTEPLPDGWIMTFHNSGVPVYLHRESRVVTWSRPYFLGTGSIRKHDPPLSSIPCLHYKKMKDNEEREQSSDLTPSGDVSPVKPLSRSAELEFPLDEPDSMGADPGPPDEKDPLGAEAAPGALGQVKAKVEVCKDESVDLEEFRSYLEKRFDFEQVTVKKFRTWAERRQFNREMKRKQAESERPILPANQKLITLSVQDAPTKKEFVINPNGKSEVCILHEYMQRVLKVRPVYNFFECENPSEPFGASVTIDGVTYGSGTASSKKLAKNKAARATLEILIPDFVKQTSEEKPKDSEELEYFNHISIEDSRVYELTSKAGLLSPYQILHECLKRNHGMGDTSIKFEVVPGKNQKSEYVMACGKHTVRGWCKNKRVGKQLASQKILQLLHPHVKNWGSLLRMYGRESSKMVKQETSDKSVIELQQYAKKNKPNLHILSKLQEEMKRLAEEREETRKKPKMSIVASAQPGGEPLCTVDV
As to B1, the binding entry is listed as “binds”.
